Among the data in US20020045574A1 (priority 2000, published 2002) are step yield values, retold here.

A short description of the data set: general procedure: peptide synthesis; PyBOP/HOBt. The following applies: late stage modification step, tris trifluoroacetate salt.

“3″ -N-(4-(3,4-dichlorobenzyloxy)-benzyl)-6′-deoxy-6′-guanidinyl-vancomycin morpholine amide, tris trifluoroacetate salt”: the step yield was 84% yield.
